These are yes or no findings as the source states them, for the method shown. Some entries that bind do so weakly or less than the wild type.

By UniProt entry, the sequences of proteins in these tests, tags left out. Residues count along the entry.
UniProt P10275, residues 325-919: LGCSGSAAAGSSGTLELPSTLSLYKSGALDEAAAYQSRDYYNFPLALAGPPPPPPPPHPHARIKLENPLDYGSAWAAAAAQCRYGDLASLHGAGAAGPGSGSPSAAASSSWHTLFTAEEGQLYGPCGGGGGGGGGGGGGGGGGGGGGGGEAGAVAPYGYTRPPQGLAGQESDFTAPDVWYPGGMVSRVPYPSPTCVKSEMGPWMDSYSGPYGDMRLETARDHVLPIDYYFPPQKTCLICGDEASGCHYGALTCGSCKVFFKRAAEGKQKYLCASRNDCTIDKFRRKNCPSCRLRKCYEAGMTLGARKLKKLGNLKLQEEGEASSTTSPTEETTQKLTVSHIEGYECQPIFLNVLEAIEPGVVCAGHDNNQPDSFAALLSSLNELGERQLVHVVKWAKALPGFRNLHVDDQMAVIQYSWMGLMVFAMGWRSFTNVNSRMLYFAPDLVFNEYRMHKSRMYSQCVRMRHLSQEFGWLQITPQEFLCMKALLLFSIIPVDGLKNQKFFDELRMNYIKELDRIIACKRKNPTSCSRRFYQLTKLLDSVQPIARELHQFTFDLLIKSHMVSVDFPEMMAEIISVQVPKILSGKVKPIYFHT

The target in experiment [1] is human AR fragment, amino acids 325 to 919 (human) (UniProt P10275). Nature of the experiment: yeast two hybrid (figure legend, schematic of the AR).
The target is the same in experiment [2]. Nature of the experiment: yeast two hybrid screen with AR 325-919 as probe, 10^-6 M DHT, β-galactosidase assay.

B1: HSRNAAM fragment, amino acids 271 to 433 (yeast two hybrid library clone, insert 986 bp to 2096 bp) (enzyme, UniProt P55345 271-433, looked up)
chain: FNLSALKSLAVKEFFSKPKYNHILKPEDCLSEPCTILQLDMRTVQISDLETLRGELRFDIRKAGTLHGFTAWFSVHFQSLQEGQPPQVLSTGPFHPTTHWKQTLFMMDDPVPVHTGDVVTGSVVLQRNPVWRRHMSVALSWAVTSRQDPTSQKVGEKVFPIWR
For the molecule B1, the binding result in experiment [1] and in experiment [2] was “binds” in each case.

The values are drawn from patent US7074566.
